Source: publication doi:10.1101/2023.01.23.525191
No constants are given. Whether binding was seen depends on the method and setting. In cells and extracts the contact can be indirect. Binding calls can cover weak binding; strength is not graded here. Values belong to the binder of their own block, whether it stands above or below them.

Target: StrepII-His6-RBPMS-A ΔC20 (rat)
Assay: pull-down

B2: MATR3 (protein, UniProt P43243 1-847)
chain: MSKSFQQSSLSRDSQGHGRDLSAAGIGLLAAATQSLSMPASLGRMNQGTARLASLMNLGMSSSLNQQGAHSALSSASTSSHNLQSIFNIGSRGPLPLSSQHRGDADQASNILASFGLSARDLDELSRYPEDKITPENLPQILLQLKRRRTEEGPTLSYGRDGRSATREPPYRVPRDDWEEKRHFRRDSFDDRGPSLNPVLDYDHGSRSQESGYYDRMDYEDDRLRDGERCRDDSFFGETSHNYHKFDSEYERMGRGPGPLQERSLFEKKRGAPPSSNIEDFHGLLPKGYPHLCSICDLPVHSNKEWSQHINGASHSRRCQLLLEIYPEWNPDNDTGHTMGDPFMLQQSTNPAPGILGPPPPSFHLGGPAVGPRGNLGAGNGNLQGPRHMQKGRVETSRVVHIMDFQRGKNLRYQLLQLVEPFGVISNHLILNKINEAFIEMATTEDAQAAVDYYTTTPALVFGKPVRVHLSQKYKRIKKPEGKPDQKFDQKQELGRVIHLSNLPHSGYSDSAVLKLAEPYGKIKNYILMRMKSQAFIEMETREDAMAMVDHCLKKALWFQGRCVKVDLSEKYKKLVLRIPNRGIDLLKKDKSRKRSYSPDGKESPSDKKSKTDGSQKTESSTEGKEQEEKSGEDGEKDTKDDQTEQEPNMLLESEDELLVDEEEAAALLESGSSVGDETDLANLGDVASDGKKEPSDKAVKKDGSASAAAKKKLKKVDKIEELDQENEAALENGIKNEENTEPGAESSENADDPNKDTSENADGQSDENKDDYTIPDEYRIGPYQPNVPVGIDYVIPKTGFYCKLCSLFYTNEEVAKNTHCSSLPHYQKLKKFLNKLAEERRQKKET
- binding: no binding (tested: 2 μM)

B4: ESRP2 (protein, UniProt Q9H6T0 1-727)
chain: MTPPPPPPPPPGPDPAADPAADPCPWPGSLVVLFGATAGALGRDLGSDETDLILLVWQVVEPRSRQVGTLHKSLVRAEAAALSTQCREASGLSADSLARAEPLDKVLQQFSQLVNGDVALLGGGPYMLCTDGQQLLRQVLHPEASRKNLVLPDMFFSFYDLRREFHMQHPSTCPARDLTVATMAQGLGLETDATEDDFGVWEVKTMVAVILHLLKEPSSQLFSKPEVIKQKYETGPCSDSTVPCPYSSKADVVDSETVVRARGLPWQSSDQDVARFFKGLNVARGGVALCLNAQGRRNGEALIRFVDSEQRDLALQRHKHHMGVRYIEVYKATGEEFVKIAGGTSLEVARFLSREDQVILRLRGLPFSAGPTDVLGFLGPECPVTGGTEGLLFVRHPDGRPTGDAFALFACEELAQAALRRHKGMLGKRYIELFRSTAAEVQQVLNRYASGPLLPTLTAPLLPIPFPLAPGTGRDCVRLRGLPYTATIEDILSFLGEAAADIRPHGVHMVLNQQGRPSGDAFIQMTSAERALAAAQRCHKKVMKERYVEVVPCSTEEMSRVLMGGTLGRSGMSPPPCKLPCLSPPTYTTFQATPTLIPTETAALYPSSALLPAARVPAAPTPVAYYPGPATQLYLNYTAYYPSPPVSPTTVGYLTTPTAALASAPTSVLSQSGALVRMQGVPYTAGMKDLLSVFQAYQLPADDYTSLMPVGDPPRTVLQAPKEWVCL
- binding: no binding (tested: 2 μM)

Next, values leading:

- binding: binds
B1: RBM14 (protein, UniProt Q96PK6 1-669)
chain: MKIFVGNVDGADTTPEELAALFAPYGTVMSCAVMKQFAFVHMRENAGALRAIEALHGHELRPGRALVVEMSRPRPLNTWKIFVGNVSAACTSQELRSLFERRGRVIECDVVKDYAFVHMEKEADAKAAIAQLNGKEVKGKRINVELSTKGQKKGPGLAVQSGDKTKKPGAGDTAFPGTGGFSATFDYQQAFGNSTGGFDGQARQPTPPFFGRDRSPLRRSPPRASYVAPLTAQPATYRAQPSVSLGAAYRAQPSASLGVGYRTQPMTAQAASYRAQPSVSLGAPYRGQLASPSSQSAAASSLGPYGGAQPSASALSSYGGQAAAASSLNSYGAQGSSLASYGNQPSSYGAQAASSYGVRAAASSYNTQGAASSLGSYGAQAASYGAQSAASSLAYGAQAASYNAQPSASYNAQSAPYAAQQAASYSSQPAAYVAQPATAAAYASQPAAYAAQATTPMAGSYGAQPVVQTQLNSYGAQASMGLSGSYGAQSAAAATGSYGAAAAYGAQPSATLAAPYRTQSSASLAASYAAQQHPQAAASYRGQPGNAYDGAGQPSAAYLSMSQGAVANANSTPPPYERTRLSPPRASYDDPYKKAVAMSKRYGSDRRLAELSDYRRLSESQLSFRRSPTKSSLDYRRLPDAHSDYARYSGSYNDYLRAAQMHSGYQRRM

- binding: no binding (tested: 2 μM)
B3: RBFOX2 (protein, UniProt O43251 1-390)
chain: MQNEPLTPGYHGFPARDSQGNQEPTTTPDAMVQPFTTIPFPPPPQNGIPTEYGVPHTQDYAGQTGEHNLTLYGSTQAHGEQSSNSPSTQNGSLTTEGGAQTDGQQSQTQSSENSESKSTPKRLHVSNIPFRFRDPDLRQMFGQFGKILDVEIIFNERGSKGFGFVTFENSADADRAREKLHGTVVEGRKIEVNNATARVMTNKKMVTPYANGWKLSPVVGAVYGPELYAASSFQADVSLGNDAAVPLSGRGGINTYIPLISLPLVPGFPYPTAATTAAAFRGAHLRGRGRTVYGAVRAVPPTAIPAYPGVVYQDGFYGADLYGGYAAYRYAQPATATAATAAAAAAAAYSDGYGRVYTADPYHALAPAASYGVGAVASLYRGGYSRFAPY
